Assay results reported in US20060276387A1 (published 2006).
These are yes or no findings as the source states them, for the method shown. In cells and extracts the contact can be indirect. Some results given as binding are weak or reduced against the parent protein; the word gives no strength. Sequences can lack the tags named with a protein.

Chains of the proteins cited; added tags and fusions are not shown. Lines headed by an entry give the natural chain unless they say otherwise; changes in a name come on top.
UniProt P15884: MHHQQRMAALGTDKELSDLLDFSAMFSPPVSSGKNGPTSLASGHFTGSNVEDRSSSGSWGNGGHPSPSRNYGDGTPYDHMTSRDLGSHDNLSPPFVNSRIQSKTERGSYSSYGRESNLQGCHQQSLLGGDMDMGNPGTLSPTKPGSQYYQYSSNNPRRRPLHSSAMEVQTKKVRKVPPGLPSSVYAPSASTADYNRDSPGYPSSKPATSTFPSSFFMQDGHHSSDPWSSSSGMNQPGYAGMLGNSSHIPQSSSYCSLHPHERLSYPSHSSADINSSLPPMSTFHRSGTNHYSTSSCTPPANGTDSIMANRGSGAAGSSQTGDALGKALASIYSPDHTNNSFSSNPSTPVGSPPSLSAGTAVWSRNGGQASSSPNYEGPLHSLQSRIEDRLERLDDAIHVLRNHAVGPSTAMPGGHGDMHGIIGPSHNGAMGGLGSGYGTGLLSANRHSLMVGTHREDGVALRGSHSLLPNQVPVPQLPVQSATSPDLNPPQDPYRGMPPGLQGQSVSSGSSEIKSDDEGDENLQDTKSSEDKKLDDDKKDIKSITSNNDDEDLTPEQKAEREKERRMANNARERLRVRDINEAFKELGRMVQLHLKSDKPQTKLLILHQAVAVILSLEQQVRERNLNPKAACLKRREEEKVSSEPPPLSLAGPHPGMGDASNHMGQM

B1: human hepatocyte nuclear factor 3-gamma (HNF3G), N-terminus HA-tagged (other, not shown: small tags and cut ends)
chain: MLGSVKMEAHDLAEWSYYPEAGEVYSPVTPVPTMAPLNSYMTLNPLSSPYPPGGLPASPLPSGPLAPPAPAAPLGPTFPGLGVSGGSSSSGYGAPGPGLVHGKEMPKGYRRPLAHAKPPYSYISLITMAIQQAPGKMLTLSEIYQWIMDLFPYYRENQQRWQNSIRHSLSFNDCFVKVARSPDKPGKGSYWALHPSSGNMFENGCYLRRQKRFKLEEKVKKGGSGAATTTRNGTGSAASTTTPAATVTSPPQPPPPAPEPEAQGGEDVGALDCGSPASSTPYFTGLELPGELKLDAPYNFNHPFSINNLMSEQTPAPPKLDVGFGGYGAEGGEPGVYYQGLYSRSLLNAS
modifications: 35S-methionine-labeled (in the pull-down)
B2: human thymopoietin (TMPO), N-terminus HA-tagged (protein, not shown: small tags and cut ends)
chain: MPEFLEDPSVLTKDKLKSELVANNVTLPAGEQRKDVYVQLYLQHLTARNRPPLPAGTNSKGPPDFSSDEEREPTPVLGSGAAAAGRSRAAVGRKATKKTDKPRQEDKDDLDVTELTNEDLLDQLVKYGVNPGPIVGTTRKLYEKKLLKLREQGTESRSSTPLPTISSSAENTRQNGSNDSDRYSDNEEGKKKEHKKVKSTRDIVPFSELGTTPSGGGFFQGISFPEISTRPPLGSTELQAAKKVHTSKGDLPREPLVATNLPGRGQLQKLASERNLFISCKSSHDRCLEKSSSSSSQPEHSAMLVSTAASPSLIKETTTGYYKDIVENICGREKSGIQPLCPERSHISDQSPLSSKRKALEESESSQLISPPLAQAIRDYVNSLLVQGGVGSLPGTSNSMPPLDVENIQKRIDQSKFQETEFLSPPRKVPRLSEKSVEERDSGSFVAFQNIPGSELMSSFAKTVVSHSLTTLGLEVAKQSQHDKIDASELSFPFHESILKVIEEEWQQVDRQLPSLACKYPVSSREATQILSVPKVDDEILGFISEATPLGGIQAASTESCNQQLDLALCRAYEAAASALQIATHTAFVAKAMQADISQAAQILSSDPSRTHQALGILSKTYDAASYICEAAFDEVKMAAHTMGNATVGRRYLWLKDCKINLASKNKLASTPFKGGTLFGGEVCKVIKKRGNKH
modifications: 35S-methionine-labeled
B3: human PHD finger protein 1 (PHF1), N-terminus HA-tagged (other, not shown: small tags and cut ends)
chain: MAQPPRLSRSGASSLWDPASPAPTSGPRPRLWEGQDVLARWTDGLLYLGTIKKVDSAREVCLVQFEDDSQFLVLWKDISPAALPGEELLCCVCRSETVVPGNRLVSCEKCRHAYHQDCHVPRAPAPGEGEGTSWVCRQCVFAIATKRGGALKKGPYARAMLGMKLSLPYGLKGLDWDAGHLSNRQQSYCYCGGPGEWNLKMLQCRSCLQWFHEACTQCLSKPLLYGDRFYEFECCVCRGGPEKVRRLQLRWVDVAHLVLYHLSVCCKKKYFDFDREILPFTSENWDSLLLGELSDTPKGERSSKLLSALNSHKDRFISGREIKKRKCLFGLHARMPPPVEPPTGDGALTSFPSGQGPGGGVSRPLGKRRRPEPEPLRRRQKGKVEELGPPSAVRNQPEPQEQRERAHLQRALQASVSPPSPSPNQSYQGSSGYNFRPTDARCLPSSPIRMFASFHPSASTAGTSGDSGPPDRSPLELHIGFPTDIPKSAPHSMTASSSSVSSPSPGLPRRSAPPSPLCRSLSPGTGGGVRGGVGYLSRGDPVRVLARRVRPDGSVQYLVEWGGGGIF
modifications: 35S-methionine-labeled (in the pull-down)
B4: human distal-less homeobox 4 (DLX4), N-terminus HA-tagged (other, not shown: small tags and cut ends)
chain: MTSLPCPLPGRDASKAVFPDLAPVPSVAAAYPLGLSPTTAASPNLSYSRPYGHLLSYPYTEPANPGDSYLSCQQPAALSQPLCGPAEHPQELEADSEKPRLSPEPSERRPQAPAKKLRKPRTIYSSLQLQHLNQRFQHTQYLALPERAQLAAQLGLTQTQVKIWFQNKRSKYKKLLKQNSGGQEGDFPGRTFSVSPCSPPLPSLWDLPKAGTLPTSGYGNSFGAWYQHHSSDVLASPQMM
modifications: 35S-methionine-labeled (in the pull-down)

Experiments:
[1] = biological target: N-terminus GST-fused IPF1 (GST-IPF1), human insulin promoter factor 1 (human); test: GST pull-down of Example 2, told again in Example 3
[2] = biological target: N-terminus GST-fused IPF1 (GST-IPF1), human insulin promoter factor 1 (human); test: GST pull-down with GST-IPF1, 35S-labeled in vitro translated protein, autoradiography

| Molecule | binding [1] | binding [2] |
| --- | --- | --- |
| human transcription factor 4 (TCF4), N-terminus HA-tagged (from UniProt P15884 1-667) | binds | binds |
| B1 | binds | binds |
| B2 | binds | binds |
| B3 | binds | binds |
| B4 | binds | binds |
